Compound in this test: Nc1nc2c(ncn2[C@@H]2O[C@H](COP(=O)(O)OP(=O)(O)OP(=O)(O)O)[C@@H](O)[C@H]2O)c(=O)[nH]1 [guanosine triphosphate]
Description: NP40-soluble protein abundance relative to vehicle (solubility fold change) (ratio); higher = more soluble protein in presence of GTP. The procedure, abridged:
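In three independent experiments, Jurkat crude lysate made by Dounce homogenisation was treated for 10 min at room temperature and then 3 min at 37 °C with eight concentrations ranging from 0.1 to 10 mM. It was then solubilised with 0.8% NP40 plus benzonase for 60 min at 4 °C and ultracentrifuged. The supernatant was TMT-labelled for LC-MS/MS, and each value is the fold change against the detergent-processed vehicle for the same replicate, using vsn-normalised intensities.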

Amino acid sequences for entries named in this document (tags omitted). A change or cut given only in a name is not applied to a line headed by its entry.
UniProt Q86VM9: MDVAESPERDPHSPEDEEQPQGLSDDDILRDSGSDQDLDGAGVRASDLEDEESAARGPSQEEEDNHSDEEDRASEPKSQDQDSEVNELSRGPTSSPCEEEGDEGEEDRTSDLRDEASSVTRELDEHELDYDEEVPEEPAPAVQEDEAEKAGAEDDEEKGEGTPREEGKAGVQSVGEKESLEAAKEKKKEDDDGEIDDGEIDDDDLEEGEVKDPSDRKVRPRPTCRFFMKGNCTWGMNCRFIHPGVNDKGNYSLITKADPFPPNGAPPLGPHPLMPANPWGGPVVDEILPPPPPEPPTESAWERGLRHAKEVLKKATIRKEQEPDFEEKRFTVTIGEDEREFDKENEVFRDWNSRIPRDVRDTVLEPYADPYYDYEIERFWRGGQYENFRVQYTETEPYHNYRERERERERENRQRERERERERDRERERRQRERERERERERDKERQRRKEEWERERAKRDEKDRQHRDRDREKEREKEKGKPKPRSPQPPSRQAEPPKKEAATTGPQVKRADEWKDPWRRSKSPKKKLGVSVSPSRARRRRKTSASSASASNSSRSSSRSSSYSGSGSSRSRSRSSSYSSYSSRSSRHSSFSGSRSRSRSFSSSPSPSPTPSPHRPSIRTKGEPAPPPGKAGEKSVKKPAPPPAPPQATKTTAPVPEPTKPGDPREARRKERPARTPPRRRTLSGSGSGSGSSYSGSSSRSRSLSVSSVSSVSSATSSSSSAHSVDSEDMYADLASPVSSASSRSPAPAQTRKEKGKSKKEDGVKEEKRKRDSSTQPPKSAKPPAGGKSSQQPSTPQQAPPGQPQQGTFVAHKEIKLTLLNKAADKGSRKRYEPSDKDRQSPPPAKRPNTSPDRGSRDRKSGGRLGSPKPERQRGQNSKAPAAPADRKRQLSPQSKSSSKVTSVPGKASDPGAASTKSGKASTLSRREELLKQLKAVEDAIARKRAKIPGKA
UniProt P15498: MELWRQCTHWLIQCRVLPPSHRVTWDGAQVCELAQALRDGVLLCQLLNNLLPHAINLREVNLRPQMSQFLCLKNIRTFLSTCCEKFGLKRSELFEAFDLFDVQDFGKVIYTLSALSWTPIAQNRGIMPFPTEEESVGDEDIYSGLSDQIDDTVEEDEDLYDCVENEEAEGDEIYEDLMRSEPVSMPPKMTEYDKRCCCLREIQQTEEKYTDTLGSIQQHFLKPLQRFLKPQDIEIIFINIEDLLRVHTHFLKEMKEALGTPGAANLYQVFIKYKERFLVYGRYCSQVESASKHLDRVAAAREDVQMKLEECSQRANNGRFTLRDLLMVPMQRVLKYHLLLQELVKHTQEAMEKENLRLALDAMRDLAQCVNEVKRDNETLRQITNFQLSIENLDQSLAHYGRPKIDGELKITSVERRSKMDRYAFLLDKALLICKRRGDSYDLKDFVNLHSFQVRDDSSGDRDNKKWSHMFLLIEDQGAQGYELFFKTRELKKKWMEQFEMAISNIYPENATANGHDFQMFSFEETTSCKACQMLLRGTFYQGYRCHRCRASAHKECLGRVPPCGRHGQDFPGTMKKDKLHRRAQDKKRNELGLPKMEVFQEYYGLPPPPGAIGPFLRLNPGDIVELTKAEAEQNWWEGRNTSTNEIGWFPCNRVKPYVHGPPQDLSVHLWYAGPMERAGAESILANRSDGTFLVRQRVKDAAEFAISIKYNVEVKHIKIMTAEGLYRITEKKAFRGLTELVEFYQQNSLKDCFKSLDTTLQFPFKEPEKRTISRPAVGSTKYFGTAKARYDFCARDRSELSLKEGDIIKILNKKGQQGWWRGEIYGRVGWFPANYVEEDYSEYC
UniProt Q9UNP9: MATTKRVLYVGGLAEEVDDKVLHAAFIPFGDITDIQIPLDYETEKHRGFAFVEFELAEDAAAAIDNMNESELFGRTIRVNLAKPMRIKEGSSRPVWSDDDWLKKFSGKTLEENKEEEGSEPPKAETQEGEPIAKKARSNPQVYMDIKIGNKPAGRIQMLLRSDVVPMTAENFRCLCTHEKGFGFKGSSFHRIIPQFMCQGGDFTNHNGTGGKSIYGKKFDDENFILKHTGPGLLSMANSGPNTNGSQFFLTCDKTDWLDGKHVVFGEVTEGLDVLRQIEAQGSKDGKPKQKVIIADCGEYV
UniProt Q9BPY3: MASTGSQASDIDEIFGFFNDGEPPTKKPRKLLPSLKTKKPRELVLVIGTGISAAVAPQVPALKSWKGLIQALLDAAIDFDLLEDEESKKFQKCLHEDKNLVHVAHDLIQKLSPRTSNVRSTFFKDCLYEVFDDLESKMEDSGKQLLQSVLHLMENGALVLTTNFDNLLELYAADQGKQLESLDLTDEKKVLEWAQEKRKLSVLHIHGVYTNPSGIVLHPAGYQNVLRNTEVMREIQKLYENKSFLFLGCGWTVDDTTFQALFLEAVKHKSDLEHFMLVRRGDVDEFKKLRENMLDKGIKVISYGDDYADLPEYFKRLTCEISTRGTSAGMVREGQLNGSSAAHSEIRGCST
UniProt O43708: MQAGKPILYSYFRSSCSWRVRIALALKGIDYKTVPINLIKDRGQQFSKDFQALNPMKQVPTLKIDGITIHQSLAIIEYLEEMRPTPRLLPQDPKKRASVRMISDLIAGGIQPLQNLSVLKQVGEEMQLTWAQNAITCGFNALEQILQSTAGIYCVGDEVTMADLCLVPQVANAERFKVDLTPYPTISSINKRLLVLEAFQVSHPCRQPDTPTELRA
UniProt Q15154: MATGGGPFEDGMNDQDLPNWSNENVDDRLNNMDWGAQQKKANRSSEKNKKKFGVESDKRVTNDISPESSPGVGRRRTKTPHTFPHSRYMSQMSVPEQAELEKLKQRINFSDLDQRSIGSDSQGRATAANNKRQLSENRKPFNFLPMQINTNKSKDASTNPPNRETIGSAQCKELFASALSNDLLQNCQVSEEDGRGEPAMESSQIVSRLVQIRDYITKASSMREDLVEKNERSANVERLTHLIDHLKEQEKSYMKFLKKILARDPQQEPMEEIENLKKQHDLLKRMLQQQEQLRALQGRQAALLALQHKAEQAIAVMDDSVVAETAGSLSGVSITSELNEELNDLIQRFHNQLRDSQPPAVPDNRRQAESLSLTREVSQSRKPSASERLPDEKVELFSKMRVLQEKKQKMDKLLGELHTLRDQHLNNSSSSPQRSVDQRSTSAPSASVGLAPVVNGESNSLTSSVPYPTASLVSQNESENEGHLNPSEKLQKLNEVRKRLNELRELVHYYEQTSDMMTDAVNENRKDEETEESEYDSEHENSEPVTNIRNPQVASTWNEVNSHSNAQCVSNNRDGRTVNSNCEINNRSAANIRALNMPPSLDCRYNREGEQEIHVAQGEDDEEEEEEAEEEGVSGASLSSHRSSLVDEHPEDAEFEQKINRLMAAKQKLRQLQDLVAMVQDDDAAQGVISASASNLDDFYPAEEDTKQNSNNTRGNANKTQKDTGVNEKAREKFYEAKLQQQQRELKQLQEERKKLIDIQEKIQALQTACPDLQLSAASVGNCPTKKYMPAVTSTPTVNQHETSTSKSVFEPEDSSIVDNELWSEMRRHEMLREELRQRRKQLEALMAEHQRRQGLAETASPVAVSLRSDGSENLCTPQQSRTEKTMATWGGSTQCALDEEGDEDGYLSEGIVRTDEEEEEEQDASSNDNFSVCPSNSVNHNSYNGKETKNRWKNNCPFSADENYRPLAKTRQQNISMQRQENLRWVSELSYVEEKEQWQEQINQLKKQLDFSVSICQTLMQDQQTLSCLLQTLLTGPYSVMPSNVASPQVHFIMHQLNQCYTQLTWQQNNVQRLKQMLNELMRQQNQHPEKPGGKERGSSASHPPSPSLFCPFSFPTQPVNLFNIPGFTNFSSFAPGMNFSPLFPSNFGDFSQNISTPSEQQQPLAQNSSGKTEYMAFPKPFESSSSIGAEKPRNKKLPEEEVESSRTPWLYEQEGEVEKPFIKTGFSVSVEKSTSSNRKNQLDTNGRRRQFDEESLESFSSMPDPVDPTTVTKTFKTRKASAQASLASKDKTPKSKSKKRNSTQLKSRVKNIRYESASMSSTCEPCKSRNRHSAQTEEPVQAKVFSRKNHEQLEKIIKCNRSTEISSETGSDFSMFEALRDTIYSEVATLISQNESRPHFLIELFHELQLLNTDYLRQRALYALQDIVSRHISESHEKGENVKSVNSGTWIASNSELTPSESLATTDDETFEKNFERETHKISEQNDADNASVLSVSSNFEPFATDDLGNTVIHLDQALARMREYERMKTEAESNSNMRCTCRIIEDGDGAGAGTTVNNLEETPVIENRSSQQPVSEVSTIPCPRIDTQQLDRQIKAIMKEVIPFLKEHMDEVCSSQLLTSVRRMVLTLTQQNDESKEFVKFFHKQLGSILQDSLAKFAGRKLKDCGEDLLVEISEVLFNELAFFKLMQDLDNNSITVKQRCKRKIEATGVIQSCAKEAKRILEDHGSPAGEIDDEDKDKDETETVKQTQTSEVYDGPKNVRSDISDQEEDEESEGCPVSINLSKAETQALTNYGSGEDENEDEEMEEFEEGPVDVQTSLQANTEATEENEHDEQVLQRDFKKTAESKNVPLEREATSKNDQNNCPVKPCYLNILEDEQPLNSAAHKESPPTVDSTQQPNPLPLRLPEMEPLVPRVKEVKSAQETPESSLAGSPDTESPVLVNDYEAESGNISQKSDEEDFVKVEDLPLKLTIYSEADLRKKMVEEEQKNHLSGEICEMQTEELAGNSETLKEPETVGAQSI
UniProt O95248: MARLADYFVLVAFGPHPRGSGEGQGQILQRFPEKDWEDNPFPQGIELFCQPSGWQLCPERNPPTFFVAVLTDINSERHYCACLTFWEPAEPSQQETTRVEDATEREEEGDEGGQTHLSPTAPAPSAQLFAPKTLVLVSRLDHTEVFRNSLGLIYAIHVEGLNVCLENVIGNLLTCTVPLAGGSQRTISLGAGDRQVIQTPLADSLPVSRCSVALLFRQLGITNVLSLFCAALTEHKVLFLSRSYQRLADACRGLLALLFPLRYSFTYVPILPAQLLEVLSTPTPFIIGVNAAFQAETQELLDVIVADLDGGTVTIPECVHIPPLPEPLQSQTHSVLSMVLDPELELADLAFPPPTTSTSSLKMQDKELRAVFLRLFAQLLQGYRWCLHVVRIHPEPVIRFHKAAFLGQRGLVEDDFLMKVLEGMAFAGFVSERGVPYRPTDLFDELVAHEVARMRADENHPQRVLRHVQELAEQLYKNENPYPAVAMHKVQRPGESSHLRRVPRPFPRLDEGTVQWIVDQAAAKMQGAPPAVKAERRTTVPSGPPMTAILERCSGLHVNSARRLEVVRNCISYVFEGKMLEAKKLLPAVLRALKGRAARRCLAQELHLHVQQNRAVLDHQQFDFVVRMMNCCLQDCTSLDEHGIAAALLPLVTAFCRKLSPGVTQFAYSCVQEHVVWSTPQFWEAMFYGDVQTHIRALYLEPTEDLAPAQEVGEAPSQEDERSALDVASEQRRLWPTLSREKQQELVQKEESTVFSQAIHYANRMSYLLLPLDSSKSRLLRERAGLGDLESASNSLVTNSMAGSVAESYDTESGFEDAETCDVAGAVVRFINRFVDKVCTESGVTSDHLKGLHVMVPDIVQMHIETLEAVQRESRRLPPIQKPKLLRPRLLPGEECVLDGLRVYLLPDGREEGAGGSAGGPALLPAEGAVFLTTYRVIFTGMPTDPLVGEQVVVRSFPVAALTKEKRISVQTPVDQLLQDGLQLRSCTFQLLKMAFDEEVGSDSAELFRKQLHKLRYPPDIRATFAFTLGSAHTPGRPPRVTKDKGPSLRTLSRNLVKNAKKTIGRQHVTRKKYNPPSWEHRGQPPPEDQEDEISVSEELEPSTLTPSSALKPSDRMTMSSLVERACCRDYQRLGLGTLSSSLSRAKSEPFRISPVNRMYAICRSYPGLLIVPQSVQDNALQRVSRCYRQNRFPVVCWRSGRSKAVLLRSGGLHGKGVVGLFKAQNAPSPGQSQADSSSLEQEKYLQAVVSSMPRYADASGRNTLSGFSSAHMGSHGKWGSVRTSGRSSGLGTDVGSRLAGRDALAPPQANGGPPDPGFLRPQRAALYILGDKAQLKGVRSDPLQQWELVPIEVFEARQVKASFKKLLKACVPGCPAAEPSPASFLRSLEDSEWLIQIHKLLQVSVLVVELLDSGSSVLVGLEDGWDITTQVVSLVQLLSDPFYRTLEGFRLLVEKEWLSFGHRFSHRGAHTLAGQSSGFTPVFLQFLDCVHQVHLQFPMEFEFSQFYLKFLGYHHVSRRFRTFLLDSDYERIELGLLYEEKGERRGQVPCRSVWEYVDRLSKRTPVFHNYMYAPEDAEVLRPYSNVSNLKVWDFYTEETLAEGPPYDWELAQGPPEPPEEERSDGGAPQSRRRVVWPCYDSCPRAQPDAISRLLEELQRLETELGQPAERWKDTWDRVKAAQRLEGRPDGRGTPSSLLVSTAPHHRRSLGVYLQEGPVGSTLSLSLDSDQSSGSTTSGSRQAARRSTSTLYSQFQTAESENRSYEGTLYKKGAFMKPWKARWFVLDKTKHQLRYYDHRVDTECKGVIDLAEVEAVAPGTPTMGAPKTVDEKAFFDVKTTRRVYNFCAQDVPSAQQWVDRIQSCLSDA

± gives the standard deviation of the averaged measurements. The list shows a part of the results.

Data on 17 targets can be found in the supplement of paper PMC6411743.

On to “E7ERS3 and related entries (UniProt Q86VM9)”, for which the NP40-soluble protein abundance by setting is: (concentration: 0.1mM) 0.983 ± 0.031; (concentration: 0.5mM) 1.005 ± 0.0053; (concentration: 1mM) 1.12 ± 0.045; (concentration: 2mM) 1.15 ± 0.037; (concentration: 4mM) 1.25 ± 0.066; (concentration: 6mM) 1.29 ± 0.047. The NP40-soluble protein abundance runs as follows: (concentration: 8mM) 1.37 ± 0.12; (concentration: 10mM) 1.36 ± 0.16.

“E9PC74 and related entries (UniProt Q13144)”: the NP40-soluble protein abundance by setting is: (concentration: 0.1mM) 1.06 ± 0.086; (concentration: 0.5mM) 1.11 ± 0.075; (concentration: 1mM) 1.05 ± 0.043; (concentration: 2mM) 1.09 ± 0.1; (concentration: 4mM) 1.07 ± 0.099; (concentration: 6mM) 1.1 ± 0.059. In addition, the NP40-soluble protein abundance is, setting by setting: (concentration: 8mM) 1.06 ± 0.068; (concentration: 10mM) 1.03 ± 0.078.

As to “F8WCF6 and related entries (UniProt P59998)”, the NP40-soluble protein abundance runs as follows: (concentration: 0.1mM) 1 ± 0.062; (concentration: 0.5mM) 1.04 ± 0.085; (concentration: 1mM) 0.945 ± 0.053; (concentration: 2mM) 0.96 ± 0.092; (concentration: 4mM) 0.913 ± 0.068; (concentration: 6mM) 0.929 ± 0.056. Moreover, the NP40-soluble protein abundance by setting is: (concentration: 8mM) 0.881 ± 0.043; (concentration: 10mM) 0.864 ± 0.042.

G3V3G9 (UniProt P40855): the NP40-soluble protein abundance is, setting by setting: (concentration: 0.1mM) 1.04 ± 0.033; (concentration: 0.5mM) 1.01 ± 0.039; (concentration: 1mM) 0.955 ± 0.024; (concentration: 2mM) 0.969 ± 0.035; (concentration: 4mM) 1.02 ± 0.06; (concentration: 6mM) 0.976 ± 0.099. In addition, the NP40-soluble protein abundance runs as follows: (concentration: 8mM) 1 ± 0.026; (concentration: 10mM) 0.971 ± 0.042.

As for “F5H5P4 and related entries (UniProt P15498)”, the NP40-soluble protein abundance by setting is: (concentration: 0.1mM) 1.05 ± 0.043; (concentration: 0.5mM) 1.05 ± 0.077; (concentration: 1mM) 0.9215 ± 0.0078; (concentration: 2mM) 0.935 ± 0.085; (concentration: 4mM) 0.915 ± 0.041; (concentration: 6mM) 0.896 ± 0.044. Further, the NP40-soluble protein abundance (concentration: 8mM) came to 0.872 ± 0.053 and the NP40-soluble protein abundance (concentration: 10mM) was 0.84 ± 0.083.

Regarding “E7EPB3 and related entries (UniProt P50914)”, the NP40-soluble protein abundance by setting is: (concentration: 0.1mM) 0.895 ± 0.094; (concentration: 0.5mM) 0.955 ± 0.14; (concentration: 1mM) 1.02 ± 0.22; (concentration: 2mM) 0.961 ± 0.25; (concentration: 4mM) 0.859 ± 0.27; (concentration: 6mM) 0.83 ± 0.27. Moreover, the NP40-soluble protein abundance was determined as 0.62 ± 0.18 (concentration: 8mM) and 0.898 ± 0.32 (concentration: 10mM).

Consider “E9PEQ6 and related entries (UniProt Q9UNP9)”, for which the NP40-soluble protein abundance reads like this: (concentration: 0.1mM) 0.954 ± 0.041; (concentration: 0.5mM) 1.03 ± 0.058; (concentration: 1mM) 0.971 ± 0.07; (concentration: 2mM) 0.964 ± 0.049; (concentration: 4mM) 0.936 ± 0.051; (concentration: 6mM) 0.954 ± 0.041. The NP40-soluble protein abundance reads like this: (concentration: 8mM) 0.985 ± 0.022; (concentration: 10mM) 0.957 ± 0.051.

With “E9PC47 and related entries (UniProt P53667)”, the NP40-soluble protein abundance reads like this: (concentration: 0.1mM) 0.901 ± 0.095; (concentration: 0.5mM) 1.11 ± 0.15; (concentration: 1mM) 1.1 ± 0.21; (concentration: 2mM) 0.923 ± 0.03; (concentration: 4mM) 1.06 ± 0.15; (concentration: 6mM) 1.04 ± 0.11. The NP40-soluble protein abundance was 1.01 ± 0.093 (concentration: 8mM) and 0.929 ± 0.055 (concentration: 10mM).

“G3V5T9 and related entries (UniProt P24941)”: the NP40-soluble protein abundance was 0.984 ± 0.03 (concentration: 0.1mM); 0.987 ± 0.055 (concentration: 0.5mM); 0.946 ± 0.01 (concentration: 1mM); 0.941 ± 0.021 (concentration: 2mM); 0.922 ± 0.029 (concentration: 4mM); 0.939 ± 0.037 (concentration: 6mM). The NP40-soluble protein abundance turned out to be 0.884 ± 0.049 (concentration: 8mM) and 0.884 ± 0.073 (concentration: 10mM).

Take “G3V3M6 and related entries (UniProt P27695)”: the NP40-soluble protein abundance (concentration: 0.1mM) is 0.908 ± 0.092; the NP40-soluble protein abundance (concentration: 0.5mM) amounted to 0.953 ± 0.12; the NP40-soluble protein abundance (concentration: 1mM) turned out to be 0.898 ± 0.1; the NP40-soluble protein abundance (concentration: 2mM) amounted to 0.877 ± 0.1; the NP40-soluble protein abundance (concentration: 4mM) came out at 0.866 ± 0.1; the NP40-soluble protein abundance (concentration: 6mM) came to 0.891 ± 0.089. The NP40-soluble protein abundance turned out to be 0.872 ± 0.095 (concentration: 8mM) and 0.88 ± 0.11 (concentration: 10mM).

On to “E9PMJ2 and related entries (UniProt Q9BPY3)”, for which the NP40-soluble protein abundance is 1.01 ± 0.013 (concentration: 0.1mM); 0.982 ± 0.061 (concentration: 0.5mM); 0.991 ± 0.09 (concentration: 1mM); 1 ± 0.07 (concentration: 2mM); 1.01 ± 0.012 (concentration: 4mM); 0.939 ± 0.085 (concentration: 6mM). Besides, the NP40-soluble protein abundance is, setting by setting: (concentration: 8mM) 0.933 ± 0.059; (concentration: 10mM) 0.9487 ± 0.0082.

Take “F5H269 and related entries (UniProt Q9Y485)”: the NP40-soluble protein abundance is, setting by setting: (concentration: 0.1mM) 0.991 ± 0.013; (concentration: 0.5mM) 1.11 ± 0.081; (concentration: 1mM) 1.05 ± 0.096; (concentration: 2mM) 1.01 ± 0.087; (concentration: 4mM) 1.04 ± 0.09; (concentration: 6mM) 1.06 ± 0.088. Besides, the NP40-soluble protein abundance turned out to be 1.12 ± 0.15 (concentration: 8mM) and 1.11 ± 0.11 (concentration: 10mM).

In the case of “G3V5T0 and related entries (UniProt O43708)”, the NP40-soluble protein abundance runs as follows: (concentration: 0.1mM) 0.95 ± 0.046; (concentration: 0.5mM) 0.961 ± 0.087; (concentration: 1mM) 0.879 ± 0.058; (concentration: 2mM) 0.867 ± 0.063; (concentration: 4mM) 0.848 ± 0.068; (concentration: 6mM) 0.854 ± 0.076. Moreover, the NP40-soluble protein abundance (concentration: 8mM) amounted to 0.819 ± 0.096 and the NP40-soluble protein abundance (concentration: 10mM) came to 0.815 ± 0.091.

Turning to “E7ETA6 and related entries (UniProt Q15154)”, the NP40-soluble protein abundance is, setting by setting: (concentration: 0.1mM) 0.976 ± 0.04; (concentration: 0.5mM) 0.968 ± 0.046; (concentration: 1mM) 1.01 ± 0.041; (concentration: 2mM) 1.02 ± 0.052; (concentration: 4mM) 1.04 ± 0.025; (concentration: 6mM) 1.1 ± 0.063. The NP40-soluble protein abundance reads like this: (concentration: 8mM) 1.13 ± 0.029; (concentration: 10mM) 1.15 ± 0.044.

For “F8VU11 and related entries (UniProt Q6NWY9)”, the NP40-soluble protein abundance reads like this: (concentration: 0.1mM) 0.998 ± 0.25; (concentration: 0.5mM) 1.1 ± 0.27; (concentration: 1mM) 1.03 ± 0.22; (concentration: 2mM) 1.15 ± 0.35; (concentration: 4mM) 1.21 ± 0.41; (concentration: 6mM) 1.24 ± 0.39. The NP40-soluble protein abundance reads like this: (concentration: 8mM) 1.32 ± 0.52; (concentration: 10mM) 1.18 ± 0.37.

“F8VZ44 and related entries (UniProt Q9NRG9)”: the NP40-soluble protein abundance is, setting by setting: (concentration: 0.1mM) 1.06 ± 0.097; (concentration: 0.5mM) 0.9932 ± 0.0084; (concentration: 1mM) 0.905 ± 0.024; (concentration: 2mM) 0.9484 ± 0.0085; (concentration: 4mM) 0.924 ± 0.03; (concentration: 6mM) 0.874 ± 0.092. In addition, the NP40-soluble protein abundance is, setting by setting: (concentration: 8mM) 0.937 ± 0.071; (concentration: 10mM) 1.04 ± 0.019.

Consider “G5E933 and related entries (UniProt O95248)”, for which the NP40-soluble protein abundance by setting is: (concentration: 0.1mM) 1.05 ± 0.016; (concentration: 0.5mM) 1.05 ± 0.032; (concentration: 1mM) 0.997 ± 0.022; (concentration: 2mM) 1.08 ± 0.049; (concentration: 4mM) 1.08 ± 0.034; (concentration: 6mM) 1.08 ± 0.063. Moreover, the NP40-soluble protein abundance runs as follows: (concentration: 8mM) 1.03 ± 0.027; (concentration: 10mM) 1 ± 0.056.
